Assay results from patent publication US20180148764.

Sequences of proteins named here, by UniProt entry; tags and fusion partners are left off. A change or cut given only in a name is not applied to a line headed by its entry.
UniProt P0A847: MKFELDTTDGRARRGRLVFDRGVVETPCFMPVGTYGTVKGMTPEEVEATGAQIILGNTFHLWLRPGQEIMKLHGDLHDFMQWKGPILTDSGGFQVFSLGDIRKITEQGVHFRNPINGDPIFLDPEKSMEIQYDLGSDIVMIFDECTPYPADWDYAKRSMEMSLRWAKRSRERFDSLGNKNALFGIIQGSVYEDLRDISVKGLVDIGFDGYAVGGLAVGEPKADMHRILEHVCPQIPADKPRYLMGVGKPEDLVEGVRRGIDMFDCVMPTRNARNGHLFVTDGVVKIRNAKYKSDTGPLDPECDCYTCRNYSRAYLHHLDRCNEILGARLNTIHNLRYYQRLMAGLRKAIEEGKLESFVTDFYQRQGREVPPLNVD

Target: tRNA guanine transglycosylase (TGT) (Escherichia coli) (UniProt P0A847)
Assay: activity assay
Details: purified recombinant protein

Sequence: GGGAAUAAUUUUGUUUAACUUUAAGAAGGAGAUAUAAUGGUGAGCAAGGGCGAGGAGGAUAACAUGGCCAUCAUCAAGGAGUUCAUGCGCUUCAAGGUGCACAUGGAGGGCUCCGUGAACGGCCACGAGUUCGAGAUCGAGGGCGAGGGCGAGGGCCGCCCCUACGAGGGCACCCAGACCGCCAAGCUGAAGGUGACCAAGGGUGGCCCCCUGCCCUUCGCCUGGGACAUCCUGUCCCCUCAGUUCAUGUACGGCUCCAAGGCCUACGUGAAGCACCCCGCCGACAUCCCCGACUACUUGAAGCUGUCCUUCCCCGAGGGCUUCAAGUGGGAGCGCGUGAUGAACUUCGAGGACGGCGGCGUGGUGACCGUGACCCAGGACUCCUCCCUGCAGGACGGCGAGUUCAUCUACAAGGUGAAGCUGCGCGGCACCAACUUCCCCUCCGACGGCCCCGUAAUGCAGAAGAAGACCAUGGGCUGGGAGGCCUCCUCCGAGCGGAUGUACCCCGAGGACGGCGCCCUGAAGGGCGAGAUCAAGCAGAGGCUGAAGCUGAAGGACGGCGGCCACUACGACGCUGAGGUCAAGACCACCUACAAGGCCAAGAAGCCCGUGCAGCUGCCCGGCGCCUACAACGUCAACAUCAAGUUGGACAUCACCUCCCACAACGAGGACUACACCAUCGUGGAACAGUACGAACGCGCCGAGGGCCGCCACUCCACCGGCGGCAUGGACGAGCUGUACAAGUAACCCCAUGUAUCUAAAUCAGCACCCAUCAUUUUCAUAUCCCCGCAGACUGUAAAUCUGCCCCCAUGUAUCUAAAUCAGCACCCAUCAUUUUCAUAUCCCCCGAAAGGCGGGCUUUUCUGUGUCUCGAG [mCherry-TAG transcript]
- activity on this sequence (PreQ1-BODIPY, Cy7, TO and biotin labeling, denaturing PAGE and fluorescence, 20 mM MgCl2): active

Sequence: GGGAAUAAUUUUGUUUAACUUUAAGAAGGAGAUAUAAUGGUGAGCAAGGGCGAGGAGGAUAACAUGGCCAUCAUCAAGGAGUUCAUGCGCUUCAAGGUGCACAUGGAGGGCUCCGUGAACGGCCACGAGUUCGAGAUCGAGGGCGAGGGCGAGGGCCGCCCCUACGAGGGCACCCAGACCGCCAAGCUGAAGGUGACCAAGGGUGGCCCCCUGCCCUUCGCCUGGGACAUCCUGUCCCCUCAGUUCAUGUACGGCUCCAAGGCCUACGUGAAGCACCCCGCCGACAUCCCCGACUACUUGAAGCUGUCCUUCCCCGAGGGCUUCAAGUGGGAGCGCGUGAUGAACUUCGAGGACGGCGGCGUGGUGACCGUGACCCAGGACUCCUCCCUGCAGGACGGCGAGUUCAUCUACAAGGUGAAGCUGCGCGGCACCAACUUCCCCUCCGACGGCCCCGUAAUGCAGAAGAAGACCAUGGGCUGGGAGGCCUCCUCCGAGCGGAUGUACCCCGAGGACGGCGCCCUGAAGGGCGAGAUCAAGCAGAGGCUGAAGCUGAAGGACGGCGGCCACUACGACGCUGAGGUCAAGACCACCUACAAGGCCAAGAAGCCCGUGCAGCUGCCCGGCGCCUACAACGUCAACAUCAAGUUGGACAUCACCUCCCACAACGAGGACUACACCAUCGUGGAACAGUACGAACGCGCCGAGGGCCGCCACUCCACCGGCGGCAUGGACGAGCUGUACAAGUAACCCCAUGUAUCUAAAUCAGCACCCAUCAUUUUCAUAUCCCCGCAGACUCUAAAUCUGCCCCCAUGCGCAGACUCUAAAUCUGCCCCCAUGCGCAGACUCUAAAUCUGCCCCCAUGCGCAGACUCUAAAUCUGCCCCCAUGCGCAGACUCUAAAUCUGCCCCCAUGCGCAGACUCUAAAUCUGCCCCCAUGCGCAGACUCUAAAUCUGCCCCCAUGCGCAGACUCUAAAUCUGCCCCCAUGCGCAGACUCUAAAUCUGCCCCCAUGUAUCUAAAUCAGCACCCAUCAUUUUCAUAUCCCCCGAAAGGCGGGCUUUUCUGUGUCUCGAG [mCherry-TAGΔC transcript]
- activity on this sequence (negligible labeling with PreQ1-BODIPY and PreQ1-TO, no pull-down after PreQ1-biotin, variant of mCherry-TAG transcript): not active

Sequence: GCAGACUCUAAAUCUGC [ECY-A1ΔC]
- activity on this sequence (no PreQ1-TO incorporation detected by LC/MS, 20 mM MgCl2, 37 C, variant of ECY-A1): not active

Negatives hold for the conditions tested. Construct, isoform or probe ends are uncertain for at least one entry.
